The other results are listed elsewhere or left out. Shown are side measurements of this screen, not its main read-out; they come without a call. Most of these compounds were active or inconclusive in the main read-out, so they are no random draw. The note in brackets gives the kind of curve behind each potency; many fits are weak.
Assay: qHTS Assay for Modulators of Lamin A Splicing
Conditions: HeLa LMNA splicing GFP/RFP minigene ratio, 48 h
Procedure, shortened: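 S3 HeLa cells stably expressing lamin A-EGFP splicing minigene plus DsRed2, 600 cells/well, 48 h compound exposure at 37C. Laser-scanning cytometry; analysed as GFP (500-530 nm)/RFP (575-640 nm) total intensity ratio; 0.5% DMSO vehicle.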

[1] = measured here: RFP viability control channel
[2] = measured here: GFP splicing reporter channel

Row | SMILES | AC50 [1] | AC50 [2]
1 | CC(C)(C)NC(=O)C(c1ccccn1)N(C(=O)C1CSC(=O)C1)c1ccccc1F (configuration not stated) | 7.08 µM [falling, full curve, poor fit] | –
2 | CCCCn1c(-c2cc(Cl)ccc2OC)n[nH]c1=S | 35.5 µM [rising, partial curve, poor fit] | 12.6 µM [rising, partial curve, poor fit]
3 | CC(C)N(Cc1nc(-c2ccccc2)no1)C(=O)CN(C)S(=O)(=O)c1ccc(Br)cc1 | 31.6 µM [rising, single point] | –
4 | N#CCCCSc1nnc(CSc2nc3ccccc3s2)n1-c1ccccc1 | 17.8 µM [rising, single point] | 11.2 µM [rising, single point]
5 | COc1ccc(-c2[nH]ncc2C=O)cc1OC | 0.0355 µM [rising, full curve, poor fit] | –
6 | COc1ccc(N(Cc2ccco2)C(=O)c2ccccc2F)cc1OC | 15.8 µM [rising, single point] | 11.2 µM [rising, partial curve, poor fit]
7 | N#CCCN(C(=O)CO/N=C/c1cccc([N+](=O)[O-])c1)c1ccccc1 | 6.31 µM [falling, full curve, poor fit] | 5.01 µM [falling, full curve]
8 | COC(=O)c1[nH]c2ccc(C)cc2c1NC(=O)CN1CCc2cc(OC)c(OC)cc2C1 | 1.12 µM [falling, full curve, poor fit] | 0.708 µM [falling, full curve, poor fit]
9 | COc1ccc(C2N(S(=O)(=O)c3ccccc3)CCN2S(=O)(=O)c2ccc(C)cc2)cc1 (configuration not stated) | 3.98 µM [falling, partial curve, poor fit] | –
10 | Cc1ccc(-n2ncc3c(N4CCN(C)CC4)ncnc32)cc1Cl | – | 35.5 µM [falling, partial curve, poor fit]
11 | O=C(Nc1ncc2c(n1)CC(c1ccco1)CC2=O)c1ccco1 (configuration not stated) | 0.00398 µM [falling, full curve, poor fit] | –
12 | COC(=O)c1c(NC(=O)c2cccs2)sc2c1CCC(C)C2 (configuration not stated) | – | 5.62 µM [rising, single point]
13 | CCc1cccc(NC(=O)CSc2ncccc2C(=O)Oc2ccccc2Cl)c1 | 0.00447 µM [rising, full curve, poor fit] | –
14 | Cc1cccc(C)c1NC(=O)Nc1cccs1 | 35.5 µM [rising, single point] | –
15 | COc1ccc(Br)cc1CN(C)CC(=O)Nc1c(Cl)cccc1Cl | 12.6 µM [falling, single point] | 22.4 µM [falling, single point]
16 | CC(OC(=O)c1cc(-c2cccnc2)nc2ccccc12)C(=O)Nc1ccc2ccccc2c1 (configuration not stated) | 4.47 µM [rising, single point] | –
17 | CC(/C=C/c1cccc(Oc2ccc(F)cc2)c1)N(O)C(N)=O (configuration not stated) | 0.00447 µM [falling, full curve, poor fit] | 10 µM [falling, partial curve, poor fit]
18 | COc1ccc2[nH]c(C)c(CCN(Cc3cccs3)C(=S)Nc3ccccc3OC)c2c1 | 5.01 µM [rising, partial curve, poor fit] | –
19 | Cc1c(C(=O)N/N=C/c2ccc(Cl)cc2)[nH]c2ccc(Cl)cc12 | 0.708 µM [rising, full curve] | –
20 | CN(CCOc1ccc(Cl)cc1)c1ccc(S(=O)(=O)N2CCCCC2)cn1 | 7.08 µM [rising, partial curve] | 10 µM [rising, partial curve]
21 | CCOC(=O)C1=C(C)NC(C)=C(C(=O)OCC)C1C(=O)OCC(=O)c1ccc2c(c1)OCCO2 | – | 17.8 µM [rising, single point]
22 | COc1ccc(C2CNC(=O)C2)cc1OC1CCCC1 (configuration not stated) | – | 0.251 µM [rising, partial curve]
23 | CC(C)C(=O)NC(=S)Nc1ccc(S(=O)(=O)N2CCCC2)cc1 | 0.0126 µM [rising, full curve, poor fit] | 0.0141 µM [rising, full curve, poor fit]
24 | COc1ccc(NC(=S)N(CCCN2CCOCC2)Cc2cn(C)c3ccccc23)cc1 | 12.6 µM [rising, partial curve] | 11.2 µM [rising, partial curve, poor fit]
25 | CC[n+]1c(-c2ccc(C)cc2)csc1Nc1c(C)n(C)n(-c2ccccc2)c1=O | 35.5 µM [rising, single point] | –
26 | Cc1ccc(N=Nc2c(N)nn(-c3ccccc3)c2N)cc1 | 5.62 µM [rising, full curve] | –
27 | CC(=O)N[C@@H]1C(O)OC(CO)C(O)C1O (some centres not stated) | 10 µM [falling, partial curve, poor fit] | 12.6 µM [falling, partial curve]

Row | SMILES | AC50 [1] | AC50 [2]
28 | COc1ccc(CNc2nc(-c3ccc4c(c3)OCO4)nc3ccccc23)c(OC)c1 | 15.8 µM [falling, partial curve, poor fit] | 11.2 µM [falling, partial curve]
29 | S=C(NCC1COc2ccccc2O1)Nc1ccc(Br)cc1 (configuration not stated) | 17.8 µM [rising, partial curve] | 11.2 µM [rising, partial curve]
30 | Cc1ccc(-n2ncc3c(N4CCC(Cc5ccccc5)CC4)ncnc32)cc1 | 2.51 µM [rising, partial curve] | –
31 | O=C(NCC1CCCO1)c1c[nH]c2ccc(S(=O)(=O)Nc3cccc(C(F)(F)F)c3)cc2c1=O (configuration not stated) | 0.0447 µM [falling, full curve] | –
32 | CN1/C(=C/C(=O)c2nc(S(C)(=O)=O)ncc2Cl)C(C)(C)c2ccccc21 | 17.8 µM [falling, partial curve] | –
33 | CC(=O)C1=C(c2ccccc2)OC(N)=C(C#N)C1c1ccc(O)cc1 (configuration not stated) | 10 µM [rising, single point] | –
34 | CCNc1ncc2nc(-c3ccccc3)c(=O)n(Cc3cccc(OC)c3)c2n1 | 20 µM [falling, single point] | 15.8 µM [falling, single point]
35 | CN(Cc1ccccc1)S(=O)(=O)c1nnc(NC(=O)c2ccccc2)s1 | 22.4 µM [rising, single point] | –
36 | CCCOP(=O)(c1ccc(N(C)C)cc1)C(Nc1ccccc1)c1ccc(N(C)C)cc1 (configuration not stated) | 11.2 µM [rising, partial curve, poor fit] | –
37 | COc1ccc(C2C(C(=O)Nc3cc(C)on3)c3ccccc3C(=O)N2C)cc1OC (configuration not stated) | 0.794 µM [falling, full curve, poor fit] | 0.562 µM [falling, full curve]
38 | Nc1nc(CSc2nc3ccccc3s2)nc(N2CCCCC2)n1 | 35.5 µM [rising, single point] | 31.6 µM [rising, single point]
39 | CCOc1ccccc1N1CCN(Cc2ccc(Br)s2)CC1 | – | 35.5 µM [rising, single point]
40 | CCOC(=O)C1=C(CSCc2ccccc2)NC(=O)NC1c1cc(C)ccc1C (configuration not stated) | 12.6 µM [rising, single point] | –
41 | Cc1cc(C)cc(N(C(C)C(=O)NCc2ccc3c(c2)OCO3)S(C)(=O)=O)c1 (configuration not stated) | 35.5 µM [rising, single point] | 2.82 µM [rising, partial curve, poor fit]
42 | Cc1cc(C=O)c(C)n1-c1cccc(C(=O)O)c1 | – | 35.5 µM [rising, single point]
43 | O=C(O)c1cc([N+](=O)[O-])ccc1NCc1ccccc1 | – | 0.01 µM [falling, full curve, poor fit]
44 | COc1ccccc1CNC(=O)C1CCN(c2nc3ccccc3o2)CC1 | 35.5 µM [rising, single point] | –
45 | Cc1cc(/N=C/C=C2\N(C)c3ccccc3C2(C)C)n(CCC#N)n1 | 22.4 µM [rising, partial curve] | 12.6 µM [rising, partial curve]
46 | Cc1ccc2nc(SCC(=O)Nc3cc([N+](=O)[O-])ccc3F)[nH]c2c1 | 35.5 µM [falling, single point] | 14.1 µM [falling, partial curve]
47 | O=c1c2ccccc2oc2nc(-c3ccco3)n(-c3ccccc3)c(=O)c12 | 0.316 µM [rising, full curve, poor fit] | –
48 | COc1ccccc1/C=N\Nc1cc(C)nc(-n2nc(C)cc2C)n1 | 35.5 µM [rising, single point] | –
49 | COc1cccc(Cn2c(=O)cnc3cnc(Nc4ccccc4)nc32)c1 | 15.8 µM [falling, single point] | 14.1 µM [falling, partial curve]
50 | Cc1cc(=O)n2[nH]c(C)c(-c3ccccc3)c2n1 | 14.1 µM [rising, single point] | 14.1 µM [rising, single point]
51 | CC(C)OCCCNc1ncnc2c1[nH]c1ccccc12 | 5.01 µM [rising, full curve] | 3.98 µM [rising, full curve]
52 | O=C(NCc1ccccc1)c1ccc(CSc2nc3cccnc3n2Cc2ccccc2F)cc1 | 35.5 µM [falling, single point] | 35.5 µM [falling, single point]
53 | Cn1c(=O)c2c(ncn2CC(=O)Nc2ccccc2Sc2ccccc2)n(C)c1=O | – | 7.94 µM [rising, partial curve, poor fit]
54 | Oc1c(C(Nc2cccc(C(F)(F)F)c2)c2ccncc2)ccc2cccnc12 (configuration not stated) | 3.16 µM [rising, single point] | –

A run of entries taken from the entries so far, as a working copy:
Row | SMILES | AC50 [1] | AC50 [2]
34 | CCNc1ncc2nc(-c3ccccc3)c(=O)n(Cc3cccc(OC)c3)c2n1 | 20 µM [falling, single point] | 15.8 µM [falling, single point]
35 | CN(Cc1ccccc1)S(=O)(=O)c1nnc(NC(=O)c2ccccc2)s1 | 22.4 µM [rising, single point] | –
